Assay results taken from patent US11203565B2, “Ester compound and PIN1 inhibitor, inflammatory disease therapeutic, and colon cancer therapeutic in which said ester compound is used” (Hiroshima University, priority 2016, dated 2021).
For at least one compound, name, drawing or mass did not settle the structure.

Protein sequences, listed by entry. Tags and fused reporters are not part of them.
UniProt Q13526, whole entry: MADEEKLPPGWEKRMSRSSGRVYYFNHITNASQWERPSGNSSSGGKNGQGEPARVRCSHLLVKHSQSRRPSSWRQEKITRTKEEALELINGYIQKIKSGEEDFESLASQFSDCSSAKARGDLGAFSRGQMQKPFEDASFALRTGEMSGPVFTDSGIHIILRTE

Target: T1, Pin1 (Homo sapiens, UniProt Q13526)
T1 construct: endogenous in cells; host or cells: 293T cells
Test: Evaluation of inhibitory activity on function of Pin1: cell assay using degree of AMPK phosphorylation as index
Type: cell-based
Set-up: key: −: Promotion of AMPK phosphorylation was not (or hardly) found.; +: Phosphorylation of AMPK was promoted, but the promotion was weaker than that by C1.; ++: Phosphorylation of AMPK was promoted to the same degree as in the case of C1.; +++: Phosphorylation of AMPK was promoted more strongly than in the case of C1
Conditions: 293T cells, compound 100 μM, 10 mM 2-DG, pAMPK immunoblot rated by comparison with C1
Description: In order to evaluate the inhibitory activities of the compounds of the present invention synthesized in Example 2 on the function of Pin1, an assay using cells was carried out according to a method previously developed by the present inventors (Yusuke Nakatsu et al., Journal of Biological Chemistry, 2015, Vol. 290, No. 40, pp. 24255-24266), using as an index the degree of phosphorylation of AMPK (AMP-activated protein kinase), whose phosphorylation is known to be suppressed by Pin1.
Briefly, 293T cells were plated on a 24-well plate coated with collagen. Forty-eight hours later, each compound (100 μM) synthesized in the Example was added to the plate, and the plate was left to stand in an incubator for 30 minutes. Thereafter, 10 mM 2-DG was added to the plate, and, 1 hour later, each sample was collected using a buffer containing mercaptoethanol and SDS.
According to conventional methods, SDS-PAGE and blotting were carried out, and then blocking was carried out with 3% BSA for 1 hour. Thereafter, reaction was carried out at normal temperature for 1 hour with each of a pAMPK antibody (Cell signaling 1:2000, Can get signal solution 1: diluted by Toyobo) as a primary antibody, and an HRP-linked anti rabbit IgG (GE healthcare 1:4000, Can get signal solution 2: diluted by Toyobo) as a secondary antibody, to perform detection. […]

For `CN(C)c1ccc(C(=O)O[C@H](Cc2ccc3ccccc3c2)C(=O)O)cc1` [Compound H-212], the Pin1 inhibitory activity was “+”.
